Results: US20220089600A1, “TGFß INHIBITOR AND PRODRUGS” (FUNDACIÓ INSTITUT DE RECERCA BIOMÈDICA (IRB BARCELONA), priority 2018, published 2022)
Some results were stated once for a whole list of compounds, not compound by compound.

Test system: TGFβ signaling (12×CAGA-Firefly_Luc reporter) in HEK293T cells
Assay: In vitro CAGA-Luciferase reporter assay
Format: cell-based, human
Protocol: HEK293T cells were purchased from the ATCC and cultured in DMEM supplemented with L-glutamine and 10% fetal bovine serum (Life Technologies) at 37° C. and 5% CO2. The cells were seeded in 24-well plates and transfected with plasmids encoding 12×CAGA-Firefly_Luc and Tk-Renilla_Luc (75 and 10 ng per well, respectively), using polyethylenimine (Polysciences) as transfection reagent. After 7h, medium was replaced for starvation medium (DMEM+0.05% FBS). […] Luciferase activity was measured 16h later using the Dual Luciferase Assay kit (Promega): media were aspirated, and cells were lysed in 200 μl passive lysis buffer (kit) for 20 minutes. Bioluminescence was measured in a Berthold Lumat LB6507 luminometer (18 μl reagents, 10 seconds measurements). […]
When adding the luciferase substrate (luciferin) to the cell lysates, emission of light implies an active TGF-β pathway due to the production of pSMAD2/3-SMAD4, whereas no or little observed light would imply inhibition of the pathway by the inhibitor. Finally, the results could be normalized by the addition of Stop & Glo® which quenches the firefly luciferase enzyme/substrate and activates the Renilla transfection control, producing light which was again measured by the luminometer and used to normalize the data.

## COc1cc(C(=O)COc2ccc3nccc(-c4c(-c5cccc(C)n5)nn5c4CCC5)c3c2)ccc1O [prodrug of formula III, 1-(4-hydroxy-3-methoxyphenyl)-2-((4-(2-(6-methylpyridin-2-yl)-5,6-dihydro-4H-pyrrolo[1,2-b]pyrazol-3-yl)quinolin-6-yl)oxy)ethan-1-one]
FIG. 1
  times lower TGFβ signaling inhibitory capacity compared to compound of formula I: up to 10 times
FIG. 1, listed as compound of formula III
  times lower TGFβ signaling inhibitory capacity compared to compound of formula I: up to 8 times
